The whole screen tested about 260,000 compounds, of which about 1,500 (0.58%) were called active. The shares of active, inactive and inconclusive entries below differ from those in the screen.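 The calls were made as follows: active = inhibition above a set limit at one or more doses, reproduced on every date tested; inconclusive = results disagree between test dates, or hit never tested in dose response; inactive = the rest.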
molecular target: Virion infectivity factor (Human immunodeficiency virus type 1 group M subtype B (isolate BH10)) + Virion infectivity factor (Human immunodeficiency virus type 1 group M subtype B (isolate BRU/LAI)) + Virion infectivity factor (Human immunodeficiency virus type 1 group M subtype B (isolate PCV12)) + Virion infectivity factor (Human immunodeficiency virus type 1 group M subtype B (isolate HXB2)) + DNA dC->dU-editing enzyme APOBEC-3G (Homo sapiens) (UniProt P69720+P69721+P69722+P69723+Q9HC16); test: inhibitors of Vif binding to APOBEC3G peptide, primary screen, biochemical, TR-FRET, GST-Vif 1-94, biotin-A3G peptide, dose response retest (AID 1117319); conditions: stronger effect = higher value;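 also: Vif residues 1-94 fused to GST binding biotinylated APOBEC3G peptide 110-148; 0% = full assay without inhibitor and 100% = GST in place of GST-Vif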

Protein sequences, listed by entry. Tags and fused reporters are not part of them. Lines headed by an entry give the natural chain unless they say otherwise; changes in a name come on top.
UniProt P69720: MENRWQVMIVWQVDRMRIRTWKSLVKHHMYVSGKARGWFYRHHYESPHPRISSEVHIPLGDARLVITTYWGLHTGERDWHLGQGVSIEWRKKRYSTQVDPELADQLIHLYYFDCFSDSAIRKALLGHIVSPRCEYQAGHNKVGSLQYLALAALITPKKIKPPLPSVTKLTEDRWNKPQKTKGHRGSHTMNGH
UniProt P69721: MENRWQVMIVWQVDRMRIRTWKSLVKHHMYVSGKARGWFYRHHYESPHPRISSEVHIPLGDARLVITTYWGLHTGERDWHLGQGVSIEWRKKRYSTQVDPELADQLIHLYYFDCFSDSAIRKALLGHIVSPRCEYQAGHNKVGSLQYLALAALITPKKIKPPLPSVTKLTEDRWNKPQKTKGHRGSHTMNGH
UniProt P69722: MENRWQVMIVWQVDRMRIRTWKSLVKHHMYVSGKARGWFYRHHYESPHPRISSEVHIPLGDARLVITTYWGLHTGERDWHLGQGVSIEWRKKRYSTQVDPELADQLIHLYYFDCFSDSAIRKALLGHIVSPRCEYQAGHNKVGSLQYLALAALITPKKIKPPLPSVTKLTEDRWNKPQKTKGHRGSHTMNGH
UniProt P69723: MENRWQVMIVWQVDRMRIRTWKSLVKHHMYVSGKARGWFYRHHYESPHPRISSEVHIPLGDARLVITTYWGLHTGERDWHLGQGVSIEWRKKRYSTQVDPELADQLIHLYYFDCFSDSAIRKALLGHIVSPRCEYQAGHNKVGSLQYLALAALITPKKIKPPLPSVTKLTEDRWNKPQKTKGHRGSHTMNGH
UniProt Q9HC16: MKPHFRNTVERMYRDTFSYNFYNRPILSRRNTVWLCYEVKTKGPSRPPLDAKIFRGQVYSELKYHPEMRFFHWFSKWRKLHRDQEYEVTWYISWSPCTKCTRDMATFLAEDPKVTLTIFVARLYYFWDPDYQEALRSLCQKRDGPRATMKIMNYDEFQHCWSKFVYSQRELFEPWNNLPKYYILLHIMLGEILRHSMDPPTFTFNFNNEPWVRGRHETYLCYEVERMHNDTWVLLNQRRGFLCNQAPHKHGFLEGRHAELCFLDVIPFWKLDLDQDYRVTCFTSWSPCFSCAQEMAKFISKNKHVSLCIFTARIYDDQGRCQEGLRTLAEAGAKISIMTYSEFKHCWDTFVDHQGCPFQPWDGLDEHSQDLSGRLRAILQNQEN

SMILES | inhibition
COC(C(=O)Nc1ccnn1C1CCN(Cc2nccs2)CC1)c1ccccc1 (configuration not stated) | inconclusive: 47.4%
CN(C)c1cccc(C(=O)n2cc(C(=O)c3cc(F)ccc3O)cn2)c1 | inconclusive: 42.4%
Cc1cc(C)cc(N2CC(C(=O)O)CC2=O)c1 (configuration not stated) | inconclusive: 25.7%
CC(Sc1ccc(Cl)cc1)C(=O)NCc1ccc2c(c1)OCO2 (configuration not stated) | inconclusive: 44.3%
COc1ccc(/C=C2\CCCc3c2nc2ccccc2c3C(=O)O)cc1OC | inconclusive: 61.4%
Cc1ccc(C)c(NC2=NS(=O)(=O)c3ccccc32)c1 | inconclusive: 39.7%
Cc1[nH][nH]c(=O)c1C(c1c(C)[nH][nH]c1=O)c1cn(Cc2ccccc2Cl)c2ccccc12 | inconclusive: 47.3%
Cc1cc(C)n2nc(-c3cnn(C)c3C(F)(F)F)c(Cl)c2n1 | inconclusive: 46.2%
CC(C)C(=O)Nc1ncc(Cc2ccc(Cl)cc2)s1 | inconclusive: 57.6%
N#CC1=C2N=C(N)c3ccccc3N2C2=C(C(=O)CCC2)C1c1ccc(F)cc1 (configuration not stated) | inconclusive: 58.9%
COc1ccc(CCNC(=O)C(=O)Nc2nccs2)cc1OC | inconclusive: 34.1%
Cc1ccc(S(=O)(=O)NCCCCCC(=O)Nc2nccs2)cc1 | inconclusive: 33.7%
COc1ccccc1-c1cc(C(=O)NC2CCCC2)no1 | inconclusive: 47.5%
CN1CCN(C(=O)/C=C/c2ccc(Cl)cc2)CC1 | inconclusive: 37.1%
Nc1ncnc2c1ncn2C1OC(CO)C(O)C1N (configuration not stated) | inconclusive: 49.6%
O=C1c2ccccc2CC1Sc1nnc(-c2ccncc2)o1 (configuration not stated) | inactive: 8.68%
c1ccc(CSc2nnc3ccc(-c4ccncc4)nn23)cc1 | inconclusive: 47.5%
COc1ccc(N2C(=O)c3ccccc3NC2(C)C)cc1 | inconclusive: 50.2%
COCCCNc1nc2nonc2nc1N1CCC(C(C)N2CCOCC2)CC1 (configuration not stated) | inactive: -10.9%
COC(=O)Cc1ccc(NC(=S)N2CCN(c3ccc(F)cc3)CC2)cc1 | inconclusive: 44.5%
Cc1nn(C2CCS(=O)(=O)C2)c(Cl)c1/C=C/C(=O)OCC(N)=O (configuration not stated) | inconclusive: 48.5%
O=C(c1ccc(Nc2cccc(C(F)(F)F)c2)nc1)N1CCCC1 | inconclusive: 45.3%
Cc1cc(NC(=O)c2ccc(Br)c(S(=O)(=O)N3CCCC3)c2)no1 | inconclusive: 42.7%

SMILES | inhibition
CCOC(=O)C1(Cc2ccccc2)CCN(Cc2cn[nH]c2-c2ccccc2)CC1 | inconclusive: 58.1%
CCC(C)NS(=O)(=O)c1ccc(OCC(=O)NCc2ccco2)cc1 (configuration not stated) | inconclusive: 60%
CCOC(=O)Cc1cnc(NC(=O)Cn2nnc(-c3ccc(OCC)cc3)n2)s1 | inconclusive: 40.7%
CC1CCCN(S(=O)(=O)Cc2ccc(Cl)cc2)C1 (configuration not stated) | inactive: 4.49%
CCN(CC)c1ccc(NC(=O)c2c(OC)cccc2OC)c(C)c1 | inconclusive: 33.7%
O=C(CCNS(=O)(=O)c1cccs1)NCc1cccs1 | inconclusive: 44.7%
CCCC(N)CCCCCC(=O)O (configuration not stated) | inconclusive: 60.9%
COc1cccc(CN2CCN(C(=S)NCc3ccc(Cl)cc3)CC2)c1 | inconclusive: 46.8%
CC(=O)c1ccc(N(C(=O)CS(=O)CC(=O)Nc2ccc(F)cc2)C(C(=O)NC2CCCCC2)c2cccs2)cc1 (configuration not stated) | inconclusive: 42.3%
Cc1ccc(N=C2N=C(N)c3ccccc32)c(C)c1 | inconclusive: 45.4%
COc1cc(CNc2ccc(N3CCOCC3)cc2)cc(Br)c1OC | inconclusive: 38%
O=C(Cc1ccccc1)Nc1nnc(SCC(=O)NC2CCCC2)s1 | inconclusive: 33.1%
CCOC(=O)c1c(C)oc2c1c(CN1CCN(CCO)CC1)c(O)c1ccccc12 | inconclusive: 48.8%
CCOC(=O)c1nc(Nc2ccc(C(=O)OC)cc2)c2ccccc2n1 | inconclusive: 62.9%
Cc1csc(NC(=O)CSc2ccc3nnc(-c4ccncc4)n3n2)n1 | inconclusive: 36.5%
CC(=O)Nc1ccc(NC(=O)COc2ccccc2C(=O)Nc2cccc(Cl)c2Cl)cc1 | inconclusive: 44.1%
Cn1cnnc1SCC(=O)Nc1cc(S(=O)(=O)N2CCCCC2)ccc1Cl | inconclusive: 39.8%
CCN(CC(=O)Nc1ccc2c(c1)OCCO2)C(=O)CCc1ccccc1Cl | inconclusive: 55.2%
Nn1c(SCC(=O)Nc2ccc3c(c2)OCO3)nnc1C(F)(F)F | inactive: 1.55%
Cc1nnc(N(Cc2ccco2)C(=O)c2ccc(C#N)cc2)s1 | inconclusive: 43.9%
COc1cc(OC)nc(NC(=O)COC(=O)C2CCCCC2)n1 | inconclusive: 3.7%
Cc1ccc2cc(C(c3nnnn3C3CCCC3)N3CCN(c4ccc(F)cc4)CC3)c(=O)[nH]c2c1 (configuration not stated) | inconclusive: 47.2%
Cc1cc(C(=O)N/N=C2\CCCC(=O)C2)c2ccccc2n1 | inconclusive: 35.2%

SMILES | inhibition
CC1=NN(c2ccccc2)C(=O)/C1=C/C=C/c1ccccc1 | inactive: 5.22%
COC(=O)c1cc(N=CC2=C(O)CC(C)(C)CC2=O)cc(C(=O)OC)c1 | inconclusive: 33.1%
COCCCNC(=O)CCC(=O)NNc1nc2ccccc2c2nc(-c3ccccc3)nn12 | inconclusive: 34.6%
C#CCNC(=O)C1=C[C@H](c2ccccc2)[C@@H](CCCO)[C@H](OCC)O1 | inconclusive: 35.1%
CCOC(=O)c1c(-c2ccccc2)oc2ccc(O)c(CN3CCCC3)c12 | inconclusive: 51.4%
COc1ccc(C(=O)CCC(=O)Nc2cccnc2)cc1 | inconclusive: 53.1%
O=C(COC(=O)c1ccccn1)NCc1cccc(Cl)c1 | inactive: 11.7%
Cc1ccc(N/C=C/C(=O)c2ccc(C)cc2)cc1 | inconclusive: 36.3%
CNCCOc1ccc(Cl)c(Cl)c1 | inconclusive: 35.4%
COc1cc2cc(C(c3nnnn3C(C)(C)C)N3CCc4ccccc4C3)c(=O)[nH]c2cc1OC (configuration not stated) | inconclusive: 49.1%
CC(C)Oc1ccc2c(=O)c(-c3ccccc3)coc2c1 | inconclusive: 34.3%
CC(=O)Nc1nc2ccc(-c3nc4ccccc4o3)cc2s1 | inconclusive: 57.8%
Cc1ccccc1-n1c(C)cc(/C=C2\NC(=O)NC2=O)c1C | inconclusive: 39.4%
COc1ccc(OC)c(NC(=O)NCCc2cccc(Cl)c2)c1 | inconclusive: 48.2%
CC(=O)Nc1nnc(S(N)(=O)=O)s1 | inconclusive: 54.7%
CCCCOC(=O)CSc1nc2c(c(=O)[nH]c(=O)n2C)n1C/C=C(\C)Cl | inconclusive: 46.7%
Cn1c(NC(=O)/C=C/c2ccc(Cl)c(Cl)c2)cc(=O)n(C)c1=O | inconclusive: 42.8%
NS(=O)(=O)c1ccc(CCNc2ncnc3c2c(-c2ccccc2)cn3-c2ccc(F)cc2)cc1 | inconclusive: 35.8%
CSc1nnc(-c2cccc(C)c2)n1N | inactive: -5.45%
CCOc1ncccc1C(=O)OC(C)C(=O)Nc1ccc(CC)cc1 (configuration not stated) | inconclusive: 34.9%
CCOC(=O)c1cccc(-n2c(C)nc3ccccc3c2=O)c1 | inconclusive: 53.4%
COc1cc2[nH]c3c(=O)n(CCN4CCOCC4)cnc3c2cc1OC | inconclusive: 34.7%
COc1ccccc1N1CCN(CC(O)COCc2cccs2)CC1 (configuration not stated) | inconclusive: 35.6%

SMILES | inhibition
C=CCc1cccc(C=Nc2cc(Br)ccc2O)c1O | inconclusive: 35.4%
Cc1cc(C)c2nncn2n1 | inconclusive: 49.3%
CCCCN(CCCC)CC(O)COc1ccc(Br)cc1 (configuration not stated) | inconclusive: 41.9%
COc1ccc(NC(=O)CCCC(=O)NCCc2ccc(OC)c(OC)c2)cc1 | inconclusive: 51.5%
O=C(c1ccccc1)N1CCN(c2ncnc3c2cnn3-c2ccccc2)CC1 | inconclusive: 33.9%
COCCCNC(=O)c1cc(C)nn1-c1ccccc1 | inconclusive: 36.8%
N#Cc1ccsc1NC(=O)COC(=O)c1ccc(NC(N)=O)cc1 | inconclusive: 33.6%
CC1=C(C(=O)OC2CCCCC2)C(c2ccccc2Br)NC(=O)N1 (configuration not stated) | inactive: -6.38%
Cn1c(=S)c2[nH]c(SCCN3CCCC3)nc2n(C)c1=O | inconclusive: 50.6%
COC(=O)c1cc(OC)c(OC)cc1NC(=O)Cn1nnc(-c2ccccc2Cl)n1 | inconclusive: 2.01%
NS(=O)(=O)c1ccc(N/N=C/c2cn(-c3ccccc3)nc2-c2ccccc2)c([N+](=O)[O-])c1 | inconclusive: 53.6%
C/C(=C\C(=O)c1ccc(C)cc1)Nc1ccc(N2CCOCC2)cc1 | inactive: 11.1%
CCOc1ccc(NC(=O)CN(C)c2nnnn2-c2ccccc2)cc1OCC | inconclusive: 55.4%
CCC(C)NCCCOc1c(C)cc(C)cc1Br (configuration not stated) | inactive: -1.93%
O=C(NC(NC(=S)Nc1ccc(Cl)c(Cl)c1)C(Cl)(Cl)Cl)c1ccco1 (configuration not stated) | inconclusive: 37.9%
COc1ccc(NC(=O)Nc2ccccc2SC)cc1OC | inconclusive: 48.5%
COc1ccccc1N1CCN(Cc2ccc(OC)c3ccccc23)CC1 | inconclusive: 36.9%
COC(=O)Cn1cnc2c(nnn2Cc2ccc(Cl)cc2)c1=O | inconclusive: 32.9%
CCN(CC)c1ccc(/C=C2/SC(=O)N(C(C)C)C2=O)o1 | inconclusive: 36.5%
COc1ccc(CCNC(=O)CSc2nnc(CNC(=O)c3ccccc3F)o2)cc1OC | inconclusive: 43.4%
CCN(CC)CCn1c(=S)[nH]c2cc(C(=O)NCCc3ccc(OC)c(OC)c3)ccc2c1=O | inactive: -5.2%
O=C(O)CSc1cc(C(F)(F)F)nc(-c2ccccn2)n1 | inconclusive: 48.7%
Cc1c(Br)c([N+](=O)[O-])nn1CC(=O)NCc1ccco1 | inconclusive: 38.9%

Entries from the list above containing an NH in an aromatic ring:
SMILES | inhibition
Cc1[nH][nH]c(=O)c1C(c1c(C)[nH][nH]c1=O)c1cn(Cc2ccccc2Cl)c2ccccc12 | inconclusive: 47.3%
CCOC(=O)C1(Cc2ccccc2)CCN(Cc2cn[nH]c2-c2ccccc2)CC1 | inconclusive: 58.1%
Cc1ccc2cc(C(c3nnnn3C3CCCC3)N3CCN(c4ccc(F)cc4)CC3)c(=O)[nH]c2c1 (configuration not stated) | inconclusive: 47.2%
COc1cc2cc(C(c3nnnn3C(C)(C)C)N3CCc4ccccc4C3)c(=O)[nH]c2cc1OC (configuration not stated) | inconclusive: 49.1%
CCCCOC(=O)CSc1nc2c(c(=O)[nH]c(=O)n2C)n1C/C=C(\C)Cl | inconclusive: 46.7%
COc1cc2[nH]c3c(=O)n(CCN4CCOCC4)cnc3c2cc1OC | inconclusive: 34.7%
Cn1c(=S)c2[nH]c(SCCN3CCCC3)nc2n(C)c1=O | inconclusive: 50.6%
CCN(CC)CCn1c(=S)[nH]c2cc(C(=O)NCCc3ccc(OC)c(OC)c3)ccc2c1=O | inactive: -5.2%

Arranged by formula weight (rising): part of the list above
SMILES | inhibition
COC(=O)Cn1cnc2c(nnn2Cc2ccc(Cl)cc2)c1=O | inconclusive: 32.9%
N#Cc1ccsc1NC(=O)COC(=O)c1ccc(NC(N)=O)cc1 | inconclusive: 33.6%
NS(=O)(=O)c1ccc(N/N=C/c2cn(-c3ccccc3)nc2-c2ccccc2)c([N+](=O)[O-])c1 | inconclusive: 53.6%

From PubChem BioAssay AID1117319 (Southern Research Institute, 2015)
